Source: PubChem BioAssay AID1159584 (Peter MacCallum Cancer Centre, 2016)
Aim: 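Genes whose loss is lethal only together with E-cadherin loss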 (primary screen). System: human MCF10A breast epithelial cells, parental and CDH1-null. Knock-down reagent: siRNA against human genes. Read-out: 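ATP luminescence (CellTiter-Glo) viability per line relative to mean mock wells over all plates, and the ratio of CDH1-null to parental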. Reading the numbers: CDH1-null / parental viability ratio: higher = CDH1-null cells survive relatively better than parental; CDH1-null viability vs mock: higher = more viable CDH1-null cells.
The whole screen tested about 18,000 reagents; below is an unselected part. Not all columns of the deposit are shown. Not given: the amount of reagent, the time to read-out.

Gene,CDH1-null / parental viability ratio,CDH1-null viability vs mock (fraction of mock)
LIN28A (lin-28 RNA binding posttranscriptional regulator A),1.12,0.83
PRR35 (proline rich 35),0.97,0.76
ANKS4B (ankyrin repeat and sterile alpha motif domain containing 4B),1.05,0.8
BMP1 (bone morphogenetic protein 1),1.23,0.97
KCTD3 (potassium channel tetramerization domain containing 3),1.3,1.25
PIEZO2 (piezo type mechanosensitive ion channel component 2),1.01,0.74
MSI1 (musashi RNA binding protein 1),0.73,0.44
DNAJC9 (DnaJ heat shock protein family (Hsp40) member C9),0.87,0.48
FAR2 (fatty acyl-CoA reductase 2),1.2,1
ALDH3B2 (aldehyde dehydrogenase 3 family member B2),0.94,0.77
ZNF700 (zinc finger protein 700),1.02,0.67
ADAM30 (ADAM metallopeptidase domain 30),1.02,0.84
PCIF1 (phosphorylated CTD interacting factor 1),0.76,0.71
OTOP2 (otopetrin 2),0.86,0.56
MKRN3 (makorin ring finger protein 3),1.03,0.97
HRG (histidine rich glycoprotein),0.95,0.62
PRY2 (PTPN13 like Y-linked 2),1.23,0.37
"FLI1 (Fli-1 proto-oncogene, ETS transcription factor)",1,0.86
NTMT1 (N-terminal Xaa-Pro-Lys N-methyltransferase 1),1.01,0.68
WDR77 (WD repeat domain 77),1.03,0.7
BCO1 (beta-carotene oxygenase 1),1.02,0.98
RUVBL2 (RuvB like AAA ATPase 2),1.42,0.61
CBFA2T3 (CBFA2/RUNX1 partner transcriptional co-repressor 3),0.74,0.42
NOX3 (NADPH oxidase 3),0.99,0.86
MAP3K19 (mitogen-activated protein kinase kinase kinase 19),1.05,0.78
TUBA1B (tubulin alpha 1b),1.02,0.43
EEF1AKMT1 (EEF1A lysine methyltransferase 1),0.96,0.5
OR2L2 (olfactory receptor family 2 subfamily L member 2),1.13,0.61
"CARD17P (caspase recruitment domain family member 17, pseudogene)",0.97,0.76
UQCRC2 (ubiquinol-cytochrome c reductase core protein 2),1.19,0.88
FBXL17 (F-box and leucine rich repeat protein 17),0.91,0.64
FBXL8 (F-box and leucine rich repeat protein 8),0.98,1.02
RAC3 (Rac family small GTPase 3),1.02,0.9
PIBF1 (progesterone immunomodulatory binding factor 1),1.06,0.87
USP28 (ubiquitin specific peptidase 28),1.19,1.12
CD200 (CD200 molecule),0.92,0.57
ANG (angiogenin),1.18,1.04
SLC16A4,1.19,0.96
MAFK (MAF bZIP transcription factor K),1.03,1.02
CARD6 (caspase recruitment domain family member 6),0.77,0.69
TOR1AIP1 (torsin 1A interacting protein 1),1.07,0.96
NODAL (nodal growth differentiation factor),0.56,0.44
ACTRT1 (actin related protein T1),1.02,0.5
SOST (sclerostin),0.98,0.86
GNL1 (G protein nucleolar 1),1.16,1.18
PSTK (phosphoseryl-tRNA kinase),0.73,0.72
EIF3K (eukaryotic translation initiation factor 3 subunit K),0.8,0.74
HERC1,1.59,0.86
FABP2 (fatty acid binding protein 2),1.02,1
TAF7L (TATA-box binding protein associated factor 7 like),0.87,0.55
PRMT2 (protein arginine methyltransferase 2),0.75,0.52
HSPA1B (heat shock protein family A (Hsp70) member 1B),0.87,0.87
MTA2 (metastasis associated 1 family member 2),0.94,0.78
FAM120C (family with sequence similarity 120 member C),0.88,0.94
UPP1 (uridine phosphorylase 1),1.37,1.15
HDHD2 (haloacid dehalogenase like hydrolase domain containing 2),1.06,0.84
REG3G (regenerating family member 3 gamma),0.85,0.75
NOS3 (nitric oxide synthase 3),1.04,0.84
EIF2S3 (eukaryotic translation initiation factor 2 subunit gamma),0.8,0.48
AKR7A2 (aldo-keto reductase family 7 member A2),0.82,0.7
CLHC1 (clathrin heavy chain linker domain containing 1),0.92,0.46
GTF3A (general transcription factor IIIA),1.56,0.78
LYPD6B (LY6/PLAUR domain containing 6B),0.76,0.6
GPR62 (G protein-coupled receptor 62),1.32,1
ENDOV (endonuclease V),1.03,1.02
TNRC6C (trinucleotide repeat containing adaptor 6C),0.74,0.49
KCNMB1,1.09,1
TMEM231 (transmembrane protein 231),1,0.84

Entries above whose gene name begins with N or n:
Gene,CDH1-null / parental viability ratio,CDH1-null viability vs mock (fraction of mock)
NTMT1 (N-terminal Xaa-Pro-Lys N-methyltransferase 1),1.01,0.68
NOX3 (NADPH oxidase 3),0.99,0.86
NODAL (nodal growth differentiation factor),0.56,0.44
NOS3 (nitric oxide synthase 3),1.04,0.84
